The entries are a selection whose mix differs from that of the whole data set. At the low end of the ranking the order means little.
These sequences were tested against T1, ELF3 (UniProt P78545) (assay: DAPPL (digital affinity profiling via proximity ligation, sequencing)). Details: 10 mM Tris-HCl pH 7.5, 50 mM NaCl, 1 mM DTT, 4% glycerol, room temperature, 30 min; GST-TFs on glutathione beads, 16-mer random dsDNA library, 0.1% …; high values mean tight binding; double strand, one strand shown; scale: fold enrichment (6-mer frequency, TF over GST control).
T1 sequence: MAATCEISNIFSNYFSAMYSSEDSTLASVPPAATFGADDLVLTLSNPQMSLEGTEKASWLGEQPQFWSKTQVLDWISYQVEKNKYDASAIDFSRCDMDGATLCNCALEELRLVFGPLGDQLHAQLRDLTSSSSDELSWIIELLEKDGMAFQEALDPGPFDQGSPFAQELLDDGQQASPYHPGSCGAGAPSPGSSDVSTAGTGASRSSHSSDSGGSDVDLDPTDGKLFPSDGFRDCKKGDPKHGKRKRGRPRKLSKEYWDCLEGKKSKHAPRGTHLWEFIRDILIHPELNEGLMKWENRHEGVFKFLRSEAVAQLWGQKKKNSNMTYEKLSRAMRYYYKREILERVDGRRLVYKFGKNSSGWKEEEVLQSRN

Sequence | binding signal
CACACC | 1.02
CATCGC | 0.942
GGGCTC | 1.19
ACGTTT | 1.08
GATAAT | 0.903
CCGCTT | 2.08
CGGTTA | 1
GCTGCC | 0.936
TCTATT | 1.35
CGTAAC | 1.18
GGATGC | 1.13
GAACTT | 1.5
GCTAAA | 1.07
CGCGGC | 0.98
GGATGT | 1.61
GATATT | 1.07
TCAGCT | 0.881
TATATT | 1.58
CGTCAC | 1.21
CCGGCC | 1.14

Two entries from above, set out differently.

| Sequence | binding signal |
| --- | --- |
| CGGTTA | 1 |
| TCTATT | 1.35 |

Further records.

Sequence | binding signal
GCTTGT | 1.09
TCCTGA | 1.39
TGGCAC | 1.18
CACAAC | 1.3
TTGGCA | 1.07
GTAACC | 0.973
CCGGAT | 3.19
TTACGG | 1.35
TCTCTC | 1.39
CCACTG | 1.04
ACGCAC | 0.995
ATTAGT | 0.982
CCGACT | 1.55
CTGTCC | 1.17
CAACGA | 1.08
TGGATT | 0.843
CTGCTT | 1.28
AATCTT | 1.4
TCAAGG | 0.952

— paper PMC7862700
